# Data from PMC4422613.
# Amino acid sequences for entries named in this document (tags omitted).
# UniProt P41917: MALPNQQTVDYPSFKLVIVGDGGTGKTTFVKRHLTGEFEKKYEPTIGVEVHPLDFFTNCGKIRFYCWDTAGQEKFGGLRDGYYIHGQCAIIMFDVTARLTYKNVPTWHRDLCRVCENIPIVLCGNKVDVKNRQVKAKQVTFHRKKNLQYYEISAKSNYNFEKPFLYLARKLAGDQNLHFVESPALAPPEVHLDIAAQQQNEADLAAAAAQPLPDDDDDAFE
# These are yes or no findings as the source states them, for the method shown. In cells and extracts the contact can be indirect. Sequences can lack the tags named with a protein.
# Molecular target: T1, Mm_Bt-HA (Mus musculus) (UniProt Q6ZQE4)
# T1 sequence: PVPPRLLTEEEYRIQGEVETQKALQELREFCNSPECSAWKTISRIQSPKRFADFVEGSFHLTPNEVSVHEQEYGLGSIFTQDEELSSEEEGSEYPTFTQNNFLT
# Experiment: co-IP; Xenopus embryos co-injected with mRNAs; conditions as in Fig 3; immunoprecipitation against HA, western blot with anti-Myc or anti-HA
substance,measurement,value
Myc-tagged At_Ran2 (from UniProt P41917 1-221),binding,no binding
